This is an account of results in PMC4597257.

The chains behind the UniProt entries cited, without tags or fusion partners.
UniProt O15534: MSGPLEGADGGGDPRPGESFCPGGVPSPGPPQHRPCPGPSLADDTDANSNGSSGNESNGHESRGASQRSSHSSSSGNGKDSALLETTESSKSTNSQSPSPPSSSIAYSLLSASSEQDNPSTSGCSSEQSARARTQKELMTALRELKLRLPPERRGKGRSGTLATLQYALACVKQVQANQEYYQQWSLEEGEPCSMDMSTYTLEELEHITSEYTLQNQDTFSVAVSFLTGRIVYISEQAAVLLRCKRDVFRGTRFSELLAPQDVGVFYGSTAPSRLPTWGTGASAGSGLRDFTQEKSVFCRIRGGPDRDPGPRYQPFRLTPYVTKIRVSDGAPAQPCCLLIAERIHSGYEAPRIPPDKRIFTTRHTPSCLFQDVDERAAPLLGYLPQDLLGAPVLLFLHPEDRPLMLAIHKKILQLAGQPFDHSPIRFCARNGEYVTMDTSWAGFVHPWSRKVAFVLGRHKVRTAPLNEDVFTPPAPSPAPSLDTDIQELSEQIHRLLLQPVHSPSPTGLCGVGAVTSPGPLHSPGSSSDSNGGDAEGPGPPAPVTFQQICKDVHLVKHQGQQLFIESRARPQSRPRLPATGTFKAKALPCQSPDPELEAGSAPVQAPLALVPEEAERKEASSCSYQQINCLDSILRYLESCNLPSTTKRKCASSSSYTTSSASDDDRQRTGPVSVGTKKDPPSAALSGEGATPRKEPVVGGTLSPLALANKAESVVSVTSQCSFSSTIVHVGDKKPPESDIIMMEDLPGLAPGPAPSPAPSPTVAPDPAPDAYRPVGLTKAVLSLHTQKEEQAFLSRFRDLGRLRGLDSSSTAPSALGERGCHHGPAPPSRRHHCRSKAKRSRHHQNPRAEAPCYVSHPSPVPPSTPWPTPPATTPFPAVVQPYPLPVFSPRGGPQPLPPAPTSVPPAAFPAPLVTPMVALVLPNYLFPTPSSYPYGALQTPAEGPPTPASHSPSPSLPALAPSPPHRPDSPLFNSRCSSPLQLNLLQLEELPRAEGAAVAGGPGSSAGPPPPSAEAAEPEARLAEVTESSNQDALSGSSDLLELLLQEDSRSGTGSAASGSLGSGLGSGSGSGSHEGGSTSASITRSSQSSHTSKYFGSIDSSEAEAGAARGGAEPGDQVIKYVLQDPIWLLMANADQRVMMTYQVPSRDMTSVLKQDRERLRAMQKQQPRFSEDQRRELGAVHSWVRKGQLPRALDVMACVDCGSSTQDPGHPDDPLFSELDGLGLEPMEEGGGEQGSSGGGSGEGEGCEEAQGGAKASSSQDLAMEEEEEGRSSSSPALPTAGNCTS
UniProt P70168: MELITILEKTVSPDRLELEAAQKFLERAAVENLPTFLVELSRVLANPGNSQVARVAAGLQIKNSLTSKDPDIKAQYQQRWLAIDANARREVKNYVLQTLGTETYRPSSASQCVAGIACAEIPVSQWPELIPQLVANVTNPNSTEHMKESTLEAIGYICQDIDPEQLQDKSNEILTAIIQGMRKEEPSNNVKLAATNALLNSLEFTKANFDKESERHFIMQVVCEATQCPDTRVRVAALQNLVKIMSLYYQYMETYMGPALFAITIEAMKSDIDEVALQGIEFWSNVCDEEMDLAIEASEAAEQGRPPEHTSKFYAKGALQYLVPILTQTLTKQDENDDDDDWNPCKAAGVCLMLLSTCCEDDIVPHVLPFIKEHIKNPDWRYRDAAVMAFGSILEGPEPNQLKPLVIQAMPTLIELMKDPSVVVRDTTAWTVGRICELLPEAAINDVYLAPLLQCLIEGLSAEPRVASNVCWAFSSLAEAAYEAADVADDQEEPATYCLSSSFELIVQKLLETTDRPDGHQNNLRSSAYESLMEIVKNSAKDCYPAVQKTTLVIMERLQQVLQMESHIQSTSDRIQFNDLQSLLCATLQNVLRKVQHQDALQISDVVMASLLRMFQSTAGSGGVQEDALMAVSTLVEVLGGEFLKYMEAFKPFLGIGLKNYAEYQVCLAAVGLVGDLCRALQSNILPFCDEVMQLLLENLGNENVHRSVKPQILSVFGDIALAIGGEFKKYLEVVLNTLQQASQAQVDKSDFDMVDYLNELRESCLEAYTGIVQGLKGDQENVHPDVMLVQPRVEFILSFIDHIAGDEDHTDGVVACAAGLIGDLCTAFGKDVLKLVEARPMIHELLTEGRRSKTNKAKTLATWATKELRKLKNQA
UniProt Q14974: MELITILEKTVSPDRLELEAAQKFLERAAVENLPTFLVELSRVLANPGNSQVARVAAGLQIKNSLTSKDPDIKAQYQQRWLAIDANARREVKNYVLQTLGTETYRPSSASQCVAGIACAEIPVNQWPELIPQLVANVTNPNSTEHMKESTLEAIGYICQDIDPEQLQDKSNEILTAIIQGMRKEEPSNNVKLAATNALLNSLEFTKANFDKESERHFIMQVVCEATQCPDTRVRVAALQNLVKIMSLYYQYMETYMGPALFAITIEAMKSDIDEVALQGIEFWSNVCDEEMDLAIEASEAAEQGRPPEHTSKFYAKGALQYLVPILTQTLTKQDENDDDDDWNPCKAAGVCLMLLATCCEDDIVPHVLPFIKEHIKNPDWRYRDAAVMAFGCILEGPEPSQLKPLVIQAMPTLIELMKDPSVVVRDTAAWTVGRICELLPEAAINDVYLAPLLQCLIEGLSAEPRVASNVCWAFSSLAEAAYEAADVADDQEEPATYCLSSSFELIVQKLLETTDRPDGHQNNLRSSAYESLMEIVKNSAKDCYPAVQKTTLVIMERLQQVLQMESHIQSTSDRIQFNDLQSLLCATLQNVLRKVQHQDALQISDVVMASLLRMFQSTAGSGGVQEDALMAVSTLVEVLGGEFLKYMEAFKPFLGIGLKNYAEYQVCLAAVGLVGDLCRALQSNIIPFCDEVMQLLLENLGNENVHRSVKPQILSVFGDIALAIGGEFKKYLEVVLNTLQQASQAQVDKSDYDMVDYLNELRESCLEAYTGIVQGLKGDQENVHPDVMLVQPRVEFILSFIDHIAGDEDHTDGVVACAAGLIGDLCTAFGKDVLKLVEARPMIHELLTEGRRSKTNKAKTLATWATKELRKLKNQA
UniProt O54943: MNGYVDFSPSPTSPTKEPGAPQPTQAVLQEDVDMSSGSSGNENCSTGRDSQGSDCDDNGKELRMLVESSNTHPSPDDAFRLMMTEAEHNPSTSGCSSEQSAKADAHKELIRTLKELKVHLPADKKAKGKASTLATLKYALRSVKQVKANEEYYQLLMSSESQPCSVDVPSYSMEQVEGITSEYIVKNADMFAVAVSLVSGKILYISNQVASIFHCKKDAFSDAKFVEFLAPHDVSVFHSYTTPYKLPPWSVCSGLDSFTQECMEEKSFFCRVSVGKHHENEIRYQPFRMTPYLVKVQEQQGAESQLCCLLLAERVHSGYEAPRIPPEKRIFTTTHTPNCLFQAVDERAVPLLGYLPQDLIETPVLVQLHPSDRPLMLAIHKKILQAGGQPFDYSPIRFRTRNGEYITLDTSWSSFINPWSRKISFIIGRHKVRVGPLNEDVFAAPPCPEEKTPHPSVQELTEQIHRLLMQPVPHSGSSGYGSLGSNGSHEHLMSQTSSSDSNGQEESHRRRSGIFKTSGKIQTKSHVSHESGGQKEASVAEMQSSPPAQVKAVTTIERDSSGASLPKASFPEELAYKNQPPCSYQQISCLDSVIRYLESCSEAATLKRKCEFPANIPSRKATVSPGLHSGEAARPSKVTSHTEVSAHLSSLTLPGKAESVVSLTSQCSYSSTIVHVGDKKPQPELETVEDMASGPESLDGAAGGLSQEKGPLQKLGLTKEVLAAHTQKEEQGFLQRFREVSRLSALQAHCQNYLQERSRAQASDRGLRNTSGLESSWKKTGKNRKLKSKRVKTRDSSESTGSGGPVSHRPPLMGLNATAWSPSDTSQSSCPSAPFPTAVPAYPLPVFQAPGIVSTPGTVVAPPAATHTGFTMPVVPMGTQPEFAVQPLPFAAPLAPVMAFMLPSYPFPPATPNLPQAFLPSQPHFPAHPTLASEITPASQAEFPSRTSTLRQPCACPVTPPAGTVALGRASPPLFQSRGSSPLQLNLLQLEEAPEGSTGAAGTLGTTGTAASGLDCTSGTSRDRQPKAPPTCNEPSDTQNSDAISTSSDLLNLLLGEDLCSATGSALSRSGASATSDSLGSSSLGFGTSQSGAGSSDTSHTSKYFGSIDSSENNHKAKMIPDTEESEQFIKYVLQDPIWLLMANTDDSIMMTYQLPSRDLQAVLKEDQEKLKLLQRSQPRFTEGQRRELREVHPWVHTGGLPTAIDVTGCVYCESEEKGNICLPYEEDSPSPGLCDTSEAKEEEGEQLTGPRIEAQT

These are yes or no findings as the source states them, for the method shown. Binding seen in cells or lysates may run through a third protein. Some binding calls cover weakened binding; strength is not graded here. For some assays here: Sequences can lack the tags named with a protein.

The target of one test is Venus-tagged PER1 (UniProt O15534). The test can be described thus: co-IP; U2 OS cells transfected with Venus-tagged protein, lysed in RIPA buffer (50 mM HEPES pH 7.4, 150 mM NaCl, 1% NP-40, 0.5% sodium deoxycholate) 48 hr after transfection; anti-GFP on protein-G magnetic beads, 4°C overnight; blot with anti-KPNB1.
The target in the next test is T1, Venus-tagged PER2 (UniProt O15055).
T1 sequence: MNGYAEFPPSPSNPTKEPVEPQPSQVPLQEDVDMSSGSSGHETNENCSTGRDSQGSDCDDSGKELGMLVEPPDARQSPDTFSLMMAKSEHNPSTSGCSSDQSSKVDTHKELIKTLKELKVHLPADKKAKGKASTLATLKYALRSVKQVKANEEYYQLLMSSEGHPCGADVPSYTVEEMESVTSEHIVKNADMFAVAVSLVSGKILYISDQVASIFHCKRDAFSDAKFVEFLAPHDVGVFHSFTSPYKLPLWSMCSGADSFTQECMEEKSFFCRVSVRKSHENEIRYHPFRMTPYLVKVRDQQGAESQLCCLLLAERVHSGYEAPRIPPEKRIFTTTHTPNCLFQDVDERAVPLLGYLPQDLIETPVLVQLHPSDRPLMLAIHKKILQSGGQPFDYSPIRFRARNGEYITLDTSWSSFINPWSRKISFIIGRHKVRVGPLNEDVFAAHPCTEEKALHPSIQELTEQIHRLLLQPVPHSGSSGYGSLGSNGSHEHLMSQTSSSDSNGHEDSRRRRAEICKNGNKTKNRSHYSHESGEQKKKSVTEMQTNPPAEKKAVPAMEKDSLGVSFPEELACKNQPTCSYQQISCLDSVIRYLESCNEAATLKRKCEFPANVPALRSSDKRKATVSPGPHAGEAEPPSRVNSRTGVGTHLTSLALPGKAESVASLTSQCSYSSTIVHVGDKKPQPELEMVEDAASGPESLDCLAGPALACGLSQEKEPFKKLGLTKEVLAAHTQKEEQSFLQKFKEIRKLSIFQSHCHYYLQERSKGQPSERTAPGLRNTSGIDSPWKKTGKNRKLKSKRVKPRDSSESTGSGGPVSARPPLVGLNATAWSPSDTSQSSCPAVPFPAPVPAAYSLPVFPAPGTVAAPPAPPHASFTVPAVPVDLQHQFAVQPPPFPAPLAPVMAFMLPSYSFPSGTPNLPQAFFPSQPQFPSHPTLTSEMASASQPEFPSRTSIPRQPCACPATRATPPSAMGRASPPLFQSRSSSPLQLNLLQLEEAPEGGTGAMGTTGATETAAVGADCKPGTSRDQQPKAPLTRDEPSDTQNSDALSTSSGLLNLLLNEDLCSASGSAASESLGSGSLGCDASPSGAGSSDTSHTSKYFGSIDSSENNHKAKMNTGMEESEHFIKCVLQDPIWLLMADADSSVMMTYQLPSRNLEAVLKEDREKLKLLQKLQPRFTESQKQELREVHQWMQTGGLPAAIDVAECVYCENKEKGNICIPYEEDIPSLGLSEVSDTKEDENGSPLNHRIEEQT
The test is described as above.

For test [1], the target named is T2, Venus C-terminal (VC)-tagged CRY1 (UniProt Q16526).
T2 sequence: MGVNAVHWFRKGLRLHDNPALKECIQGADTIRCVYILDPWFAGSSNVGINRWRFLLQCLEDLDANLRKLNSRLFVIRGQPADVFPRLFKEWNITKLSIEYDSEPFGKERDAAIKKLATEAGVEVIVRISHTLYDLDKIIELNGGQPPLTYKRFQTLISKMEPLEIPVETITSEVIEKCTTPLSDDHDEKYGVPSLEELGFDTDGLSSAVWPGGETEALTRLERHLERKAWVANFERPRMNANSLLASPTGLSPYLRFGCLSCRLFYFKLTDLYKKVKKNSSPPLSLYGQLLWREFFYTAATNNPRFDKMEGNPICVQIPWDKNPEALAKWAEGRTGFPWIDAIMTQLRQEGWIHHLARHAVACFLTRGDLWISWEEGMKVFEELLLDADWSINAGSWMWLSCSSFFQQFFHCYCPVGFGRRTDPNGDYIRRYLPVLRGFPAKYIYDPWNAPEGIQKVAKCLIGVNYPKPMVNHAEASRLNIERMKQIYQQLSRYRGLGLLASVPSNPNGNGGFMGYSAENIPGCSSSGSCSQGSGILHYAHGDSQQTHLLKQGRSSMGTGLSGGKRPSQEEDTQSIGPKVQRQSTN
The test can be described thus: split reporter; BiFC of VN- and VC-tagged proteins in U2 OS cells, fixed 24 hr after transfection, fluorescence microscopy; with control or KPNB1 siRNA.

In test [2] the target is T3, Venus C-terminal (VC)-tagged CRY2 (UniProt Q49AN0).
T3 sequence: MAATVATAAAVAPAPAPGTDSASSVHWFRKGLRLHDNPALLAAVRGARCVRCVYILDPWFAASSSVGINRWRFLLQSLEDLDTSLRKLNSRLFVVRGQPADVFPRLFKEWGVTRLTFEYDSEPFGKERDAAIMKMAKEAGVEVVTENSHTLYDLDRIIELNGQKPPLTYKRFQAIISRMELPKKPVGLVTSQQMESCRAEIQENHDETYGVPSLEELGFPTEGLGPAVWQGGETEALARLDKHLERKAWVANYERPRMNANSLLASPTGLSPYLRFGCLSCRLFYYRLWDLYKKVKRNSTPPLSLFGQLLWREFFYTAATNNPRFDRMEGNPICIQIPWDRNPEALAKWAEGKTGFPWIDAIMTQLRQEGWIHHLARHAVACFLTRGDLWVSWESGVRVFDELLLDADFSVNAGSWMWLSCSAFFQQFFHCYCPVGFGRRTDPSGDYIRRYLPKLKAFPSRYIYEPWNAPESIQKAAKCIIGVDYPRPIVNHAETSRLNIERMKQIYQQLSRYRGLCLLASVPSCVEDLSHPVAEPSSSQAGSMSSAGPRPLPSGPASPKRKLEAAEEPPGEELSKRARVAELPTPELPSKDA
The description is as above.

The target of test [3] is endogenous KPNB1 (mouse liver) (mouse (endogenous in liver)) (UniProt P70168). The test can be described thus: co-IP; mouse liver homogenised in RIPA buffer 1 (50 mM Tris-HCl pH 8.0, 450 mM NaCl, 1% Triton X-100), diluted with 2 vol of the buffer without NaCl; IP with anti-KPNB1 or control IgG; blot with anti-PER2.

KPNB1 (from UniProt Q14974 1-876): the binding result in the test with Venus-tagged PER1 and in the test with Venus-tagged PER2 was “binds” throughout.

As for “Venus N terminal (VN)-tagged PER1 (from UniProt O15534 1-1290)”, the binding entry in test [1] and in test [2] was “binds” in each case.

As for “endogenous PER2 (mouse liver) (from UniProt O54943 1-1257)”, the binding entry in test [3] is “binds”.
